According to publication PMC8805557:
Results are given in words; binding and its absence hold for the method and conditions named. Binding seen in cells or lysates may run through a third protein. For some assays here: A result given as binding can be weak or reduced; the word gives no strength. Where a sequence is shown, tags or fusion partners need not be part of it.

B1: Flag-PPARα (protein, UniProt P23204 1-468)
chain: MVDTESPICPLSPLEADDLESPLSEEFLQEMGNIQEISQSIGEESSGSFGFADYQYLGSCPGSEGSVITDTLSPASSPSSVSCPVIPASTDESPGSALNIECRICGDKASGYHYGVHACEGCKGFFRRTIRLKLVYDKCDRSCKIQKKNRNKCQYCRFHKCLSVGMSHNAIRFGRMPRSEKAKLKAEILTCEHDLKDSETADLKSLGKRIHEAYLKNFNMNKVKARVILAGKTSNNPPFVIHDMETLCMAEKTLVAKMVANGVEDKEAEVRFFHCCQCMSVETVTELTEFAKAIPGFANLDLNDQVTLLKYGVYEAIFTMLSSLMNKDGMLIAYGNGFITREFLKNLRKPFCDIMEPKFDFAMKFNALELDDSDISLFVAAIICCGDRPGLLNIGYIEKLQEGIVHVLKLHLQSNHPDDTFLFPKLLQKMVDLRQLVTEHAQLVQVIKKTESDAALHPLLQEIYRDMY
B2: Flag-Hlx (protein, UniProt Q61670 1-476)
chain: MFAAGLAPFYASNFSLWSAAYCSSAGPGGCSFALDPAAVKKPSFCIADILHAGVGEPGPAAEGLVGASAALTAHLGSVHPHASFQAAARSPLRPTPVVAPSEVPAGFPQRLSPLSAAFHQHLPQQSPTQQQQPQQQPPPPPRAVSLQPPTSGTRVVPHHSGSAPAPSSKDLKFGIDRILSAEFDPKVKEGNTLRDLTSLLTGGRPAGVHLAGLQPSAGQFFASLDPISEASAILSPLSSNPRNSVQHQFQDTFPGPYAVLTKDTMPQTYKRKRSWSRAVFSNLQRKGLEKRFEIQKYVTKPDRKQLAAMLGLTDAQVKVWFQNRRMKWRHSKEAQAQKDKDKEAGEKPSGGVPAEGEREERSPSRSEGEAESESSDSESLDMAPSDTERTEGTERSLHQTTVIKASAAGALITASSSTSGSSFSFSSTSSLGSGNTHVGSASSLGGNCSELPSAHQPSVTSSPQSPEIAQAPLAGL
B3: Flag-PGC-1α (protein, UniProt O70343 1-797)
chain: MAWDMCSQDSVWSDIECAALVGEDQPLCPDLPELDLSELDVNDLDTDSFLGGLKWCSDQSEIISNQYNNEPANIFEKIDEENEANLLAVLTETLDSLPVDEDGLPSFDALTDGAVTTDNEASPSSMPDGTPPPQEAEEPSLLKKLLLAPANTQLSYNECSGLSTQNHAANHTHRIRTNPAIVKTENSWSNKAKSICQQQKPQRRPCSELLKYLTTNDDPPHTKPTENRNSSRDKCASKKKSHTQPQSQHAQAKPTTLSLPLTPESPNDPKGSPFENKTIERTLSVELSGTAGLTPPTTPPHKANQDNPFKASPKLKPSCKTVVPPPTKRARYSECSGTQGSHSTKKGPEQSELYAQLSKSSGLSRGHEERKTKRPSLRLFGDHDYCQSLNSKTDILINISQELQDSRQLDFKDASCDWQGHICSSTDSGQCYLRETLEASKQVSPCSTRKQLQDQEIRAELNKHFGHPCQAVFDDKSDKTSELRDGDFSNEQFSKLPVFINSGLAMDGLFDDSEDESDKLSYPWDGTQPYSLFDVSPSCSSFNSPCRDSVSPPKSLFSQRPQRMRSRSRSFSRHRSCSRSPYSRSRSRSPGSRSSSRSCYYYESSHYRHRTHRNSPLYVRSRSRSPYSRRPRYDSYEAYEHERLKRDEYRKEHEKRESERAKQRERQKQKAIEERRVIYVGKIRPDTTRTELRDRFEVFGEIEECTVNLRDDGDSYGFITYRYTCDAFAALENGYTLRRSNETDFELYFCGRKQFFKSNYADLDTNSDDFDPASTKSKYDSLDFDSLLKEAQRSLRR

Columns and labels:
[1] = target: HA-ZFP961 (full-length ZFP961, ZFP961-WT) (mouse); experiment: co-IP; as a1, with the PPARα agonist GW7647 (1 × 10^−6 M) present
[2] = target: HA-ZFP961 (full-length ZFP961, ZFP961-WT) (mouse); experiment: co-IP; HA-ZFP961 (or HA vector) co-transfected with the Flag-tagged partner; extracts made after 48 h in 100 mM NaCl, 50 mM Tris pH 7.5, 0.5% Triton X-100, 5% glycerol; incubated 2 h with anti-HA agarose beads; washed in 100 mM NaCl, 50 mM Tris pH 7.5, 0.1% NP-40, 3% glycerol; Western blot
[3] = target: HA-ZFP961-Mut (KRAB domain deletion mutant of ZFP961) (mouse); experiment: as above

| Binder | binding [1] | binding [2] | binding [3] |
| --- | --- | --- | --- |
| B1 | no binding (only with GW7647 (1 × 10^−6 M)) | binds | binds |
| B2 |  | no binding |  |
| B3 |  | no binding |  |
